PubChem BioAssay AID1259405 | NCATS | 2018

Test: 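Knock-downs that lift recombinant protein yield in hamster ovary cells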 (primary screen)
Cells: Chinese hamster CHO-K1 ovary cells with stable secreted eGFP expression
Reagents: single siRNA against mouse genes, 0.8 pmol siRNA per well (2 µl of 400 nM stock)
Duration: 3 days
Detection: 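Per-well intracellular GFP measured by laser scanning cytometry, plus viability from ATP luminescence, each relative to plate median of non-targeting control wells, in %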
Scale: GFP, % of control: higher = more GFP per well, higher productivity; viability (ATP), % of control: higher = more viable cells (more ATP)
Active means: 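a knock-down is called active if GFP reaches 120% or more of non-targeting control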
This is an unselected part of about 50,000 deposited reagents. In the full data, about 4,000 (8%) are marked active. 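Mouse siRNA library applied to hamster cells; one well for each siRNA.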 Unmarked entries are inactive. The numbers tell different reagents against one gene apart.

Gene,siRNA no.,"GFP, % of control","viability (ATP), % of control"
Or4p23,1,65.3,54.6
Or4p23,2,71.7,73.7
Or4p23,3,52.8,78.7
Dtx2,1,103,81.1
Dtx2,2,107,124
Slc39a14,1,82.6,35.7
Slc39a14,2,122 (active),72.9
Slc39a14,3,54.5,68
Trim13,1,92.8,85.8
Trim13,2,49.1,67.8
Trim13,3,65.5,48.5
Srsf5,1,60.6,76.9
Srsf5,2,58.1,41.2
Srsf5,3,38.3,41.6
Usp29,1,98.4,72.1
Usp29,2,52.5,70.5
Usp29,3,85.1,68.3
Smtnl2,1,60.1,61.8
Smtnl2,2,66.4,34.8
Smtnl2,3,79.6,97.1
Cd38,1,111,83.9
Cd38,2,92.5,103
Cd38,3,17.5,41.1
Ccnt2,1,131 (active),71.6
Ccnt2,2,65.8,68.3
Ccnt2,3,111,114
Gnb1l,1,53.2,60.6
Gnb1l,2,77.2,40.6
Gnb1l,3,197 (active),74.1
Chst12,1,104,93.1
Chst12,2,74.6,67.8
Chst12,3,79,63.4
Jagn1,1,50.2,60.3
Jagn1,2,89.4,108
Jagn1,3,71.2,132
Meig1,1,73,41.4
Meig1,2,95.7,89.1
Meig1,3,120,70.8
Clca3a1,1,67.8,80
Clca3a1,2,32.2,17.3
Clca3a1,3,77.3,81.1
Slc2a2,1,67.5,81.6
Slc2a2,2,49.5,74.9
Slc2a2,3,102,83
Gfi1b,1,115,69
Gfi1b,2,95.2,60.4
Tasp1,1,90.2,72.9
Tasp1,2,77.8,56.3
Tasp1,3,63,56.3
Col15a1,1,113,130
Col15a1,2,74.8,88.5
Impact,1,67.8,80.1
Impact,2,99.8,58.2
Impact,3,85.1,85
Cdc42bpb,1,77.9,74.6
Trim24,1,59.6,63.6
Trim24,2,116,91.4
Trim24,3,97.7,85.6

Part of the list above, reformatted.
Gene	siRNA no.	GFP, % of control	viability (ATP), % of control
Slc39a14	1	82.6	35.7
Slc39a14	2	122 (active)	72.9
Slc39a14	3	54.5	68
Trim13	1	92.8	85.8
